# Numbering of substitutions follows the chain as printed. These are yes or no findings as the source states them, for the method shown. Some results given as binding are weak or reduced against the parent protein; the word gives no strength. For some of these results: Where a sequence is shown, tags or fusion partners need not be part of it.
# Chains of the proteins cited; added tags and fusions are not shown. Lines headed by an entry give the natural chain unless they say otherwise; changes in a name come on top.
# UniProt Q12884: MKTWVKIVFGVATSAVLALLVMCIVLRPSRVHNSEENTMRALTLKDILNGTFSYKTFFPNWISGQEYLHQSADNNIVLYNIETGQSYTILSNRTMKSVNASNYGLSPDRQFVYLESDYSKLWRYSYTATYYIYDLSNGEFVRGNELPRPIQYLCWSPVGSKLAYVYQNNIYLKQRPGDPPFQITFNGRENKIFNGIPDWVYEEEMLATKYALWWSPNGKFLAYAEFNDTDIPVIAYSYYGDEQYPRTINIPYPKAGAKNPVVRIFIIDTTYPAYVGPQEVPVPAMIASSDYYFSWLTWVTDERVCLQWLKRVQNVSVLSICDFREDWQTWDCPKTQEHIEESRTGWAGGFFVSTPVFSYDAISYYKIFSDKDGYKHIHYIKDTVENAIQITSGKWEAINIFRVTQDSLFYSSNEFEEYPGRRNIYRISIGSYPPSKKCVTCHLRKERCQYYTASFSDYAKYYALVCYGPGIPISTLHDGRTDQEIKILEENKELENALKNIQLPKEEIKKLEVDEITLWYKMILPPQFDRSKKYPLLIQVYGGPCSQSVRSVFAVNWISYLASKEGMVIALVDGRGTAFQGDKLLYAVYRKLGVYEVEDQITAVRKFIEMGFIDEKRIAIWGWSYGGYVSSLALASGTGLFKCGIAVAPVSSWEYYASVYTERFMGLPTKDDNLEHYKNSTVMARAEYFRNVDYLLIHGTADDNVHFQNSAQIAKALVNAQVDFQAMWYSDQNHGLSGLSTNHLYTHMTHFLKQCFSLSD
# B1: 2PE14 (VHH)
# VHH: QVQLQESGGGLVQPGGSLRLSCAASGSTFSINAVAWYRQAPGKRRELVAGISGGGVTNYPDSVKGRFTISRDNAKNTVYLQMSSLKPEDTAVYYCNLWPPRASPGGRVYWGQGTQVTVSS
# B2: 2PE17 (VHH)
# VHH: B1 VHH with P14S
# B3: 2PE36 (VHH)
# VHH: B1 VHH with G105D
# B4: 2PE42 (VHH)
# VHH: B1 VHH with P14A, K64R, G105D
# B5: 2PE44 (VHH)
# VHH: B1 VHH with I31V, K86I
# B6: 3PE12 (VHH)
# VHH: B1 VHH with I31G, V34M, A102V, R107G
# B7: 3PE42 (VHH)
# VHH: B1 VHH with G16E, A24V, F29S, I31M, V34M, V56A, R107G
# B8: 3PE57 (VHH)
# VHH: B1 VHH with I31V, G105D
# B9: 3PE93 (VHH)
# VHH: B1 VHH with G16E, A24V, F29S, I31M, V34M, V56A, V63M, R107G
# B10: 3PE94 (VHH)
# VHH: B1 VHH with G15E, T28I, F29S, V34M, S52D
# B11: 3PE60 (VHH)
# VHH: QVQLQESGGGLVQPGGSLRLSCAVSGTMLSRNAMGWYRQAPGKQRQWVAGITSDGLGNYVDFVKGRFTISRDNARNTVYLQMNTLKPDDTAVYYCNFWPPPSDRPIWGQGTQVTVSS
# B12: 2PE34 (VHH)
# VHH: QVQLQESGGGLVQAGGSLRLSCAVSGSTARLDAMGWYRQAPGKQREWVAGIDSADITDYARFVKGRFTISRDNAKNTVYLQMNSLKPEDTAVYYCNKWPPSVPPNWGHGTQVTVSS
# B13: 3PE80 (VHH)
# VHH: B12 VHH with H108Q
# B14: 2PE54 (VHH)
# VHH: QVQLQESGGGLVQAGGSLRLSCVHSGGIFTIGPLGWYRQAPGSQRELVATVTNGGGTYYADSVKGRFTISRDNAKNTVYLQMNSLKPEDTAVYYCNAAVVTAKGMGAIQSRGYWGQGTQVTVSS
# B15: 3PE81 (VHH)
# VHH: B14 VHH with V23A
# B16: 2PE10 (VHH)
# VHH: QVQLQESGGGLVQAGGSLRLSCAASGSTFSINAMMWYRQAPGKQRELVASIGSGGNTYYADSVKGRFTISRDNGKSTLYLQMNSLKPEDTAVYYCKMYRPGTYDYWGQGTQVTVSS
# B17: 2PE23 (VHH)
# VHH: QVQLQESGGGLVQPGGSLRLSCADSGSTFSINNAMGWYRQAPGKRRDWVAGITSSGVTNYPDSVKGRFTISRDNAKNTVYLQMNSLKPEDTAVYYCNLWPPRASPSGTIYWGQGTQVTVSS
# B18: 3PE66 (VHH)
# VHH: B16 VHH with L11W, A14P
# B19: 2PE31 (VHH)
# VHH: QVQLQESGGGLVQAGGSLSVSCAASGSIFSMGWFRQAPGKQRELVAAVTSGGVTNYADSVKGRFTISRDNAKNTVYLQMKSLKPEDTAVYYCAADSSRGKIYFSNYRSWNYWGQGTQVTVSS
# B20: 2PE79 (VHH)
# VHH: QVQLQESGGGLVQAGESLRLSCAVSATISSMNSMAWYRQAPGKQREWVAGLETGGRANYVDSVKGRFTISRDNARNTVLLQMNSLKPEDTAVYYCNRWPPLRSSWGQGTQVTVSS
# B21: 2PE91 (VHH)
# VHH: QVQLQESGGGLVQPGESLRLSCAASGSISSRNAMGWYRQAPGKEREWVAGITSDGITNYADSVKGRFTISRDNAKNTVGLQMNSLKPDDTAVYYCNFWPPLYGRPWGQGTQVTVSS
# B22: 2PE57 (VHH)
# VHH: QVQLQESGGGLVQAGGSLRLSCAASLKISSINAMAWYRQAAGKQRELVAGIATDGRTNYAHSVKGRFTISRDNAKNTVYLQMNSLKPEDTAVYYCNQWPPRALDAWGQGTQVTVSS
# B23: 3PE15 (VHH)
# VHH: QVQLQESGGGLVQPGGSLRLSCAASGVTFGIGAMGWYRQTPENERELVAAISSGGSTNYAASVKGRFTISRDNAPNTVYLQMNSLKPEDTAIYYCNVRRGLAWYPGWGQGTQVTVSS
# Columns and labels:
# [1] = molecular target: recombinant human FAPa extracellular domain (human) (UniProt Q12884); experiment: library panning on coated antigen, positive colonies; members in Table 6
# [2] = molecular target: human FAP on transiently transfected HEK293T cells (pMET7 FLAG-hFAP) (human) (UniProt Q12884); experiment: FACS, serial dilution of purified VHH on transfected HEK293T cells
# [3] = molecular target: T1, mouse FAP on transiently transfected HEK293T cells (pMET7 FLAG-mFAP) (mouse) (UniProt P97321); experiment: as above
# T1 sequence (looked up): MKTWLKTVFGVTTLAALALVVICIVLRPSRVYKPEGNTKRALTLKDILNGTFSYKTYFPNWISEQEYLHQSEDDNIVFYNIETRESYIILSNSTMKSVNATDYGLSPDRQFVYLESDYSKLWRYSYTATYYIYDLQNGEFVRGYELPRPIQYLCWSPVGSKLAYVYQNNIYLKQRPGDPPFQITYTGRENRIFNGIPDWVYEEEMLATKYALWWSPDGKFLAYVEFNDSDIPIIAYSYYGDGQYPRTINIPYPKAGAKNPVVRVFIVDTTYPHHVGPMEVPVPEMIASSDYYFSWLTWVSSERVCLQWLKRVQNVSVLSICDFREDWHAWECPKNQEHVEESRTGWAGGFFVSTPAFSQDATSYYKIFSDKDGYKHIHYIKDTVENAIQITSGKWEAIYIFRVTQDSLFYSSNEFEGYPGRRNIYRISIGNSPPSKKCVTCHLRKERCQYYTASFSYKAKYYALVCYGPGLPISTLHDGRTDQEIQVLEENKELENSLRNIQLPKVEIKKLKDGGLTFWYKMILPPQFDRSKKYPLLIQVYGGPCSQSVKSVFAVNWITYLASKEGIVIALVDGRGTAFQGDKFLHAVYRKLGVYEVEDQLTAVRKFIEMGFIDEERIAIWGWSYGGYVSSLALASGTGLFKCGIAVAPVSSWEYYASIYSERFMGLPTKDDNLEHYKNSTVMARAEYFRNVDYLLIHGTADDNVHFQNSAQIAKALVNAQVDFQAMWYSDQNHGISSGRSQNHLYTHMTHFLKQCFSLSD
Binder,binding [1],binding [2],binding [3]
B1,binds,binds,
B2,binds,binds,
B3,binds,binds,
B4,binds,binds,
B5,binds,binds,
B6,binds,binds,
B7,binds,binds,
B8,binds,binds,
B9,binds,binds,
B10,binds,binds,binds
B11,binds,,
B12,binds,,
B13,binds,,
B14,binds,,
B15,binds,,
B16,binds,,
B17,binds,,
B18,binds,,
B19,binds,,
B20,binds,,
B21,binds,,
B22,binds,,
B23,binds,,
